Measurements published in article PMC11653647.

Chains of the proteins cited; added tags and fusions are not shown.
UniProt O14744: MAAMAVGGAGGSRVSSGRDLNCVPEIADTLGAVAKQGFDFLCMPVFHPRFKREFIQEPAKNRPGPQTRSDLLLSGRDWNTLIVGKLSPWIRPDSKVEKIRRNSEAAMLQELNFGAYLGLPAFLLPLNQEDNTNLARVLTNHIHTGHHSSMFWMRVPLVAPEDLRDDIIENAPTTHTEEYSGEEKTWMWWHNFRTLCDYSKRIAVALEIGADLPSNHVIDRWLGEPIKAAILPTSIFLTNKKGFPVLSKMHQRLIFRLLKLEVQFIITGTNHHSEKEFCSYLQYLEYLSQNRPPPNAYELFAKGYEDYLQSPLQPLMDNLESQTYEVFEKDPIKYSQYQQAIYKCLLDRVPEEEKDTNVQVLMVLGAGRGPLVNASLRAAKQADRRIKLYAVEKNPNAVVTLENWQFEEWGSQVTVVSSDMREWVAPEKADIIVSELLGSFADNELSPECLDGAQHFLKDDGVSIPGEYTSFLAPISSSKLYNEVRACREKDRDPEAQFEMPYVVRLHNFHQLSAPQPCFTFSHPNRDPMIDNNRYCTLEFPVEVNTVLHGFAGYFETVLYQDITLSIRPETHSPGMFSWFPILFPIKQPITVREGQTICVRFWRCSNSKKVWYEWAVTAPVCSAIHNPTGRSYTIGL
UniProt Q9BQA1: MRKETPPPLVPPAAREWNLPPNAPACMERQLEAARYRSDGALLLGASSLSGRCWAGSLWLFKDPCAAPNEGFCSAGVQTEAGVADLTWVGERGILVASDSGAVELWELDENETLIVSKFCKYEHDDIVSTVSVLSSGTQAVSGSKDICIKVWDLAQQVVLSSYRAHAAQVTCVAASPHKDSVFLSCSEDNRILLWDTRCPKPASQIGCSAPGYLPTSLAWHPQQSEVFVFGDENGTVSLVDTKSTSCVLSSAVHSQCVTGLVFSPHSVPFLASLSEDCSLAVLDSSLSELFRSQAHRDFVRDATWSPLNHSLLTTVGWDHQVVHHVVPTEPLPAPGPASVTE

Target: T1, C-terminal Flag-tagged TBL2 (transducin beta-like 2) (UniProt Q9Y4P3)
T1 sequence: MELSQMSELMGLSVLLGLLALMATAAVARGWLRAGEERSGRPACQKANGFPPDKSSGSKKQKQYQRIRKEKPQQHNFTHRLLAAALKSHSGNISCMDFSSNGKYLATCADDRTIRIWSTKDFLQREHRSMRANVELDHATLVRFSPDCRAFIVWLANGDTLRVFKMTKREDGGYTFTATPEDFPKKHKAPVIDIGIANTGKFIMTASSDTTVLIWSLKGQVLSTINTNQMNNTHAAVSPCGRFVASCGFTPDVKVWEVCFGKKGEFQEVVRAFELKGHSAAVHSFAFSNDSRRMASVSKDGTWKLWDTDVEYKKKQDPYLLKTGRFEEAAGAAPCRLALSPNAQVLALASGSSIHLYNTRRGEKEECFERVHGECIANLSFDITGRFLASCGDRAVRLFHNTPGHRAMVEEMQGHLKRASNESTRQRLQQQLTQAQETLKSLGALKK
Assay: affinity purification with mass spectrometry; tandem immunoprecipitation from 293T and MDA-MB-231 cells overexpressing C-terminal Flag-tagged TBL2 or luciferase (control); hits are the intersection of the two cell lines

Substance | binding
PRMT5 (protein arginine methyltransferase 5), endogenous (from UniProt O14744 1-637) (enzyme) | binds
WDR77 (methylosome protein 50), endogenous (from UniProt Q9BQA1 1-342) | binds

Results are given in words; binding and its absence hold for the method and conditions named. Binding seen in cells or lysates may run through a third protein. Here binding means that the protein was enriched with, or labelled near, the bait; the list need not be complete. Sequences can lack the tags named with a protein.
